Results deposited as PubChem BioAssay AID1259425 (University of Nebraska Medical Center, 2018).

Aim: 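Seek colon cancer weak points whose silencing resembles KSR1 loss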 (primary screen)
System: HCT116 human colon cancer cells
Knock-down reagent: siRNA pool against human genes, 50 nM siRNA
Read-out: 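After 50 nM siRNA pool, branched-DNA assay measures six marker transcripts per well, minus blank, normalised to the geometric mean of two housekeeping transcripts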
Reading the numbers: BNIP3L mRNA: higher = more BNIP3L transcript after knockdown; NDRG1 mRNA: higher = more NDRG1 transcript after knockdown
In all, the deposit lists about 14,000 reagents; below is a random part of them. Not all columns of the deposit are shown. Not stated in the record: the time to read-out.

TMUB2 (GeneID 79089)
- BNIP3L mRNA, set 1: 0.263
- NDRG1 mRNA, set 1: 0.431

DCAF1 (GeneID 9730)
- BNIP3L mRNA, set 1: 0.316
- NDRG1 mRNA, set 1: 1.09

ZDHHC1 (GeneID 29800)
- BNIP3L mRNA, set 1: 0.076
- NDRG1 mRNA, set 1: 0.772

TM2D1 (GeneID 83941)
- BNIP3L mRNA, set 1: 0.212
- NDRG1 mRNA, set 1: 0.207

SAP18 (GeneID 10284)
- BNIP3L mRNA, set 1: 0.113
- NDRG1 mRNA, set 1: 0.147

MLANA (GeneID 2315)
- BNIP3L mRNA, set 1: 0.0759
- NDRG1 mRNA, set 1: 0.23

BFAR (GeneID 51283)
- BNIP3L mRNA, set 1: 0.0648
- NDRG1 mRNA, set 1: 0.139

PKP4 (GeneID 8502)
- BNIP3L mRNA, set 1: 0.0524
- NDRG1 mRNA, set 1: 0.14

JADE1 (GeneID 79960)
- BNIP3L mRNA, set 1: 0.09
- NDRG1 mRNA, set 1: 0.283

KCNK12 (GeneID 56660)
- BNIP3L mRNA, set 1: 0.0424
- NDRG1 mRNA, set 1: 0.309

ANKMY1 (GeneID 51281)
- BNIP3L mRNA, set 1: 0.103
- NDRG1 mRNA, set 1: 0.0491

ZNF627 (GeneID 199692)
- BNIP3L mRNA, set 1: 0.137
- NDRG1 mRNA, set 1: 0.165

GBA3 (GeneID 57733)
- BNIP3L mRNA, set 1: 0.0732
- NDRG1 mRNA, set 1: 0.118

CDCA7L (GeneID 55536)
- BNIP3L mRNA, set 1: 0.107
- NDRG1 mRNA, set 1: 0.382

CACNA1C (GeneID 775)
- BNIP3L mRNA, set 1: 0.111
- NDRG1 mRNA, set 1: 0.263

ASS1 (GeneID 445)
- BNIP3L mRNA, set 1: 0.11
- NDRG1 mRNA, set 1: 0.14

CRACR2A (GeneID 84766)
- BNIP3L mRNA, set 1: 0.0819
- NDRG1 mRNA, set 1: 0.428

MYEOV (GeneID 26579)
- BNIP3L mRNA, set 1: 0.175
- NDRG1 mRNA, set 1: 0.686

TOP1MT (GeneID 116447)
- BNIP3L mRNA, set 1: 0.122
- NDRG1 mRNA, set 1: 0.245

RRAGB (GeneID 10325)
- BNIP3L mRNA, set 1: 0.0734
- NDRG1 mRNA, set 1: 0.37

GATA6 (GeneID 2627)
- BNIP3L mRNA, set 1: 0.12
- NDRG1 mRNA, set 1: 0.177

NOMO1 (GeneID 23420)
- BNIP3L mRNA, set 1: 0.114
- NDRG1 mRNA, set 1: 0.419

CUL1 (GeneID 8454)
- BNIP3L mRNA, set 1: 0.0483
- NDRG1 mRNA, set 1: 0.155

MCM3 (GeneID 4172)
- BNIP3L mRNA, set 1: 0.0855
- NDRG1 mRNA, set 1: 0.121

AMD1 (GeneID 262)
- BNIP3L mRNA, set 1: 0.106
- NDRG1 mRNA, set 1: 0.134

STAT1 (GeneID 6772)
- BNIP3L mRNA, set 1: 0.0732
- NDRG1 mRNA, set 1: 0.097

UBE2O (GeneID 63893)
- BNIP3L mRNA, set 1: 0.121
- NDRG1 mRNA, set 1: 0.23

BTBD8 (GeneID 284697)
- BNIP3L mRNA, set 1: 0.0979
- NDRG1 mRNA, set 1: 0.114

P2RX2 (GeneID 22953)
- BNIP3L mRNA, set 1: 0.0976
- NDRG1 mRNA, set 1: 0.157

AATF (GeneID 26574)
- BNIP3L mRNA, set 1: 0.0519
- NDRG1 mRNA, set 1: 0.216

MST1R (GeneID 4486)
- BNIP3L mRNA, set 1: 0.0435
- NDRG1 mRNA, set 1: 0.264

ARHGAP9 (GeneID 64333)
- BNIP3L mRNA, set 1: 0.154
- NDRG1 mRNA, set 1: 0.846

IMMT (GeneID 10989)
- BNIP3L mRNA, set 1: 0.14
- NDRG1 mRNA, set 1: 0.101

TOP6BL (GeneID 79703)
- BNIP3L mRNA, set 1: 0.114
- NDRG1 mRNA, set 1: 0.206

CREM (GeneID 1390)
- BNIP3L mRNA, set 1: 0.04
- NDRG1 mRNA, set 1: 0.0547

PRDM13 (GeneID 59336)
- BNIP3L mRNA, set 1: 0.163
- NDRG1 mRNA, set 1: 0.086

Reprinted from the listing (3 entries):
MLANA (GeneID 2315)
- BNIP3L mRNA, set 1: 0.0759
- NDRG1 mRNA, set 1: 0.23

BFAR (GeneID 51283)
- BNIP3L mRNA, set 1: 0.0648
- NDRG1 mRNA, set 1: 0.139

PKP4 (GeneID 8502)
- BNIP3L mRNA, set 1: 0.0524
- NDRG1 mRNA, set 1: 0.14
